At least one structure is not confirmed: it was looked up by name or label, or the drawing left a doubt.
Assays:
Assay type in all cases: cell-based, human
CRH-R1 mRNA [1] = assay: CRH-R1 isoform expression by nested RT-PCR in treated C4-1 squamous cell carcinoma cells; settings: 24 hours, TPA 200 nM, forskolin 10^−5 M, IBMX 5×10^−4 M, dbcAMP 10^−3 M, + = isoform detected
CRH-R1 mRNA [2] = assay: CRH-R1 isoform expression by nested RT-PCR in treated SKMEL188 melanoma cells; settings: 24 hours, TPA 200 nM, forskolin 10^−5 M, IBMX 5×10^−4 M, dbcAMP 10^−3 M, + = isoform detected
Method: (§1) In some experiments, SKMEL188, HaCaT and C4-1 cells were also treated with TPA, forskolin or a mixture of IBMX (3-isobutyl-1-methylxanthine) and dbcAMP (N6, 2′-O-dibutyryladenosine 3′:5′-cyclic monophosphate sodium) (all from Sigma). Briefly, the cells were transferred to 75 cm^2 flasks ( 10^6 cells/flask) and cultured for 24 hours in standard culture medium. Then the following compounds were added to the separate cultures: TPA (200 nM), forskolin (10^−5 M), IBMX (5×10^−4 M), and dbcAMP (10^−3 M). Controls were represented by untreated cultures. The cells were incubated for 24 hours, detached, collected by centrifugation, and dissolved in RNA isolation solution (Trizol reagent).
(§2) Total RNA was extracted using a Trizol isolation kit (Gibco-BRL, Gaithersburg, Md.). The synthesis of first-strand cDNA was performed using the Superscript preamplification system (Gibco-BRL). Five μg of total RNA per reaction was reverse transcribed using oligo(dT) as the primer.
(§3) Nested PCR was used to detect different CRH-R1 isoforms. The first round of amplification of the human CRH-R1 fragment spanning exons 2–7 was conducted using 2 μl of cDNA and primers P110: 5′-[…]-3′ (sense) (SEQ ID No. 15) and P111: 5′-[…]-3′ (antisense) (SEQ ID No. 16). An aliquot of the PCR mixture from the first round of amplification was transferred to a new tube, and a second round of PCR was conducted. […]

CRH-R1 mRNA [3] = assay: CRH-R1 isoform expression by nested RT-PCR in treated HaCaT immortalized keratinocytes; settings: 24 hours, TPA 200 nM, + = isoform detected
Method: as §1, §2, §3

CCCCCCCCCCCCCC(=O)O[C@@H]1[C@@H](C)[C@@]2(O)[C@@H](C=C(CO)C[C@]3(O)C(=O)C(C)=C[C@@H]23)[C@@H]2C(C)(C)[C@]12OC(C)=O [TPA, phorbol 12-myristate 13-acetate]
+: CRH-R1 isoform g expression (CRH-R1 mRNA [1]) | CRH-R1 isoform α expression (CRH-R1 mRNA [1]) | CRH-R1 isoform α expression (CRH-R1 mRNA [2]) | CRH-R1 isoform h expression (CRH-R1 mRNA [3])
